Counter-ions that a name gives are not always drawn. Some of the results follow. Most values come without repeats; read them as rough.

In this assay the test system is Drosophila melanogaster DPAGT1 (Alg7) RNAi eye model. Kind of assay: eye size Z-score vs DMSO-treated DPAGT1 model flies; higher = larger eye (suppression of DPAGT1 phenotype). Conditions: 5 uM.

Take `CC(C)[C@H]1CC[C@H](C(=O)N[C@H](Cc2ccccc2)C(=O)O)CC1` [Nateglinide]: the “eye size Z-score” value turned out to be 0.54.
Still for that read-out and setting: to `COc1ccccc1OCCNCC(O)COc1cccc2[nH]c3ccccc3c12` (stereo not drawn) [Carvedilol] belongs 0.12; to `CC(C)c1nc(CN(C)C(=O)N[C@H](C(=O)N[C@@H](Cc2ccccc2)C[C@H](O)[C@H](Cc2ccccc2)NC(=O)OCc2cncs2)C(C)C)cs1` [Ritonavir], -0.76.
For `O=C(NCC1CCCCN1)c1cc(OCC(F)(F)F)ccc1OCC(F)(F)F` (stereo not drawn) [Flecainide acetate], the “eye size Z-score” value was -0.21.
Turning to `CC1CCc2cc(F)cc3c(=O)c(C(=O)O)cn1c23` (stereo not drawn) [Flumequine], the “eye size Z-score” value amounted to 1.9.
With `CCCCOc1ccc(OCCCN2CCOCC2)cc1` [Pramoxine hydrochloride], the “eye size Z-score” value stood at 0.02.
With `COC(=O)Nc1nc2cc(C(=O)c3ccc(F)cc3)ccc2[nH]1` [Flubendazol], the “eye size Z-score” value is -0.66.
The same measure, in the same setting: next, `CC(C)(C)NC(=O)[C@@H]1CN(Cc2cccnc2)CCN1C[C@@H](O)C[C@@H](Cc1ccccc1)C(=O)N[C@H]1c2ccccc2C[C@H]1O` [Indinavir sulfate]: -0.85.
In the case of `O=C(O[C@@H]1C[C@@H]2C[C@H]3C[C@H](C1)N2CC3=O)c1c[nH]c2ccccc12` [Dolasetron mesilate], the “eye size Z-score” value is -0.44.
As to `COc1ccc2cc1Oc1ccc(cc1)C[C@H]1c3c(cc4c(c3Oc3cc5c(cc3OC)CCN(C)[C@@H]5C2)OCO4)CCN1C` [Cepharanthine], the “eye size Z-score” value came to 1.28.
As to `CC(C)(C)NCC(O)c1ccc(O)c(CO)c1` (stereo not drawn) [Salbutamol], the “eye size Z-score” value is -0.42.
As for `Cc1c(OCC(F)(F)F)ccnc1C[S+]([O-])c1nc2ccccc2[nH]1` (stereo not drawn) [Lansoprazole], the “eye size Z-score” value was -0.1.
On to `Cn1c(=O)c2c(ncn2C)n(C)c1=O` [Caffeine], for which the “eye size Z-score” value is -0.28.
In the case of `CN[C@@H]1CCc2[nH]c3ccc(C(N)=O)cc3c2C1` [Frovatriptan succinate], the “eye size Z-score” value (female) was 0.29.
Regarding `CN(C)CCCC1(c2ccc(F)cc2)OCc2cc(C#N)ccc21` (stereo not drawn) [Citalopram hydrobromide], the “eye size Z-score” value was found to be 0.55.
Same read-out and setting: next, `CCCC(CCC)C(=O)O` [Valproic acid]: 0.66; `O=C(O)CNC(=O)C(CS)Cc1ccccc1` (stereo not drawn) [Thiorphan]: -0.32.
Same read-out and setting: next, `Cc1onc(-c2ccccc2)c1C(=O)N[C@@H]1C(=O)N2[C@@H]1SC(C)(C)[C@@H]2C(=O)O` [Oxacillin sodium]: 1.54; `OCC(O)CN1CCN(c2ccccc2)CC1` (stereo not drawn) [Dropropizine]: -0.13; `CN(C)CCC(c1ccc(Cl)cc1)c1ccccn1` (stereo not drawn) [Chlorpheniramine maleate]: -0.14.
On the same count and under the same terms, to `COc1cc(N)c(Cl)cc1C(=O)NC1CCN(CCCOc2ccc(F)cc2)CC1OC` (stereo not drawn) [Cisapride] belongs 0.13.
On to `COC1=CC(=O)C[C@@H](C)[C@]12Oc1c(Cl)c(OC)cc(OC)c1C2=O` [Griseofulvin], for which the “eye size Z-score” value was -0.06.
As for `CC(C)(C)C(O)/C=C/c1ccc2c(c1)OCO2` (stereo not drawn) [Stiripentol], the “eye size Z-score” value is -0.07.
On the same count and under the same terms, to `CCN(CCCc1ccccc1)CCCc1ccccc1` [Alverine citrate salt] belongs 0.76; to `O=P(O)(O)C(O)(Cc1cccnc1)P(=O)(O)O` [Risedronic acid monohydrate], -0.57.
Still for that read-out and setting: to `CCN(CC)C(=O)N1CCN(C)CC1` [Diethylcarbamazine citrate] belongs -0.26.
`C=CC[N@@+]12CC[C@@]34c5ccccc5N5/C=C6/[C@H]7C[C@H]8[C@@]9(CC[N@@+]8(CC=C)C/C7=C/CO)c7ccccc7N(/C=C(/[C@@H](C[C@@H]31)/C(=C\CO)C2)[C@H]54)[C@@H]69` [Alcuronium chloride]: the “eye size Z-score” value was determined as 0.96.
With `Clc1ccc(COC(Cn2ccnc2)c2ccc(Cl)cc2Cl)cc1` (stereo not drawn) [Econazole nitrate], the “eye size Z-score” value is -0.2.
Still for that read-out and setting: to `CO/N=C1\CN(c2nc3c(cc2F)c(=O)c(C(=O)O)cn3C2CC2)CC1CN` (stereo not drawn) [Gemifloxacin mesylate] belongs -0.94.
Same read-out and setting: to `O=C(O)c1cc(=O)c2c(OCC(O)COc3cccc4oc(C(=O)O)cc(=O)c34)cccc2o1` [Cromolyn disodium salt] belongs -0.28; to `CCCCOc1ccc(CC(=O)NO)cc1` [Bufexamac], 0.55; to `CC(=O)OC(C)C[N+](C)(C)C` (stereo not drawn) [Methacholine chloride], 1.52.
The same measure, in the same setting: next, `C=CCc1ccccc1OCC(O)CNC(C)C` (stereo not drawn) [Alprenolol hydrochloride]: -0.24.
In the case of `NC[C@H]1CC[C@H](C(=O)O)CC1` [Tranexamic acid], the “eye size Z-score” value was 0.21.
Turning to `Oc1c(Cl)cc(Cl)cc1Sc1cc(Cl)cc(Cl)c1O` [Bithionol], the “eye size Z-score” value is -0.04.
For `Cc1ccc(O)c([C@H](CCN(C(C)C)C(C)C)c2ccccc2)c1` [Tolterodine tartrate], the “eye size Z-score” value is -0.38.
`Cc1c(O)cccc1C(=O)N[C@@H](CSc1ccccc1)[C@H](O)CN1C[C@H]2CCCC[C@H]2C[C@H]1C(=O)NC(C)(C)C` [Nelfinavir mesylate]: the “eye size Z-score” value is -0.82.
As to `CCSc1ccc2c(c1)N(CCCN1CCN(C)CC1)c1ccccc1S2` [Thiethylperazine maleate], the “eye size Z-score” value is -0.38.
Same read-out and setting: to `CN(C)CCC(c1ccccc1)c1ccccn1` (stereo not drawn) [Pheniramine maleate] belongs 1.82; to `CNCC[C@@H](Oc1cccc2ccccc12)c1cccs1` [(R)-Duloxetine hydrochloride], -0.56.
Still for that read-out and setting: to `CC(CCc1ccc(O)cc1)NCCc1ccc(O)c(O)c1` (stereo not drawn) [Dobutamine hydrochloride] belongs 0.47.
Take `Nc1ccc(S(N)(=O)=O)cc1` [Sulfanilamide]: the “eye size Z-score” value is -0.78.
As for `O=c1[nH]c(=O)n([C@H]2C[C@H](O)[C@@H](CO)O2)cc1/C=C/Br` [Brivudine], the “eye size Z-score” value is -0.25.
On to `CCC(C)(C)c1ccc(CC(C)CN2C[C@@H](C)O[C@@H](C)C2)cc1` (stereo partly drawn) [Amorolfine hydrochloride], for which the “eye size Z-score” value was found to be 0.52.
Still for that read-out and setting: to `CCOC(=O)c1ccc(C#Cc2ccc3c(c2)C(C)(C)CCS3)nc1` [Tazarotene] belongs 0.79.
Same read-out and setting: to `CC[C@]12CCCN3CCc4c(n(c5ccccc45)[C@@](O)(C(=O)OC)C1)[C@@H]32` [Vincamine] belongs -1.01; to `CNC1(C)C2CCC(C2)C1(C)C` (stereo not drawn) [Mecamylamine hydrochloride], 0.39; to `CC(=C(CCO)SSCC1CCCO1)N(C=O)Cc1cnc(C)nc1N` (stereo in doubt) [Fursultiamine hydrochloride], 0.57.
Turning to `CCC(C)(CN(C)C)OC(=O)c1ccccc1` (stereo not drawn) [Amyleine hydrochloride], the “eye size Z-score” value came to 1.15.
Still for that read-out and setting: to `C=C(NC(=O)C(=C)NC(=O)c1csc(C2=N[C@@H]3c4csc(n4)[C@H]4NC(=O)c5csc(n5)[C@H]([C@](C)(O)[C@@H](C)O)NC(=O)[C@H]5CSC(=N5)/C(=C/C)NC(=O)[C@H]([C@@H](C)O)NC(=O)c5csc(n5)[C@]3(CC2)NC(=O)[C@H](C)NC(=O)C(=C)NC(=O)[C@H](C)NC(=O)[C@H]([C@@H](C)CC)N[C@@H]2C=Cc3c([C@H](C)O)cc(nc3[C@H]2O)C(=O)O[C@@H]4C)n1)C(N)=O` [Thiostrepton] belongs 0.46; to `Cn1c(=O)c2c(ncn2CC(O)CO)n(C)c1=O` (stereo not drawn) [Diprophylline], -0.04; to `NC(=O)c1cccnc1` [Nicotinamide], -1.51.
The same measure, in the same setting: next, `CC(C)(Oc1ccc(C2CC2(Cl)Cl)cc1)C(=O)O` (stereo not drawn) [Ciprofibrate]: 0.32.
With `NS(=O)(=O)c1cc2c(cc1Cl)NC(Cc1ccccc1)NS2(=O)=O` (stereo not drawn) [Benzylhydrochlorothiazide], the “eye size Z-score” value worked out at 0.85.
Regarding `CC1=C(C(=O)O)N2C(=O)[C@@H](NC(=O)[C@H](N)c3ccc(O)cc3)[C@H]2SC1` [Cefadroxil], the “eye size Z-score” value is -0.88.
Same read-out and setting: to `C=CCN1CCCC1CNC(=O)c1cc2nn[nH]c2cc1OC` (stereo not drawn) [Alizapride hydrochloride] belongs 1.06.
The same measure, in the same setting: next, `CC(C)(C)NCC(O)COc1cccc2c1CC(O)C(O)C2` (stereo not drawn) [Nadolol]: 0.19.
Regarding `CCOCCn1c(N2CCCN(C)CC2)nc2ccccc21` [Emedastine difumarate], the “eye size Z-score” value (female) is -1.12.
On to `Cc1cccn2c(=O)c(-c3nnn[nH]3)cnc12` [Pemirolast potassium], for which the “eye size Z-score” value was determined as 0.15.
For `CC[C@H](C)C(=O)O[C@H]1C[C@H](O)C=C2C=C[C@H](C)[C@H](CC[C@@H](O)C[C@@H](O)CC(=O)O)[C@H]21` [Pravastatin], the “eye size Z-score” value came out at 0.06.
Regarding `CC1=C(C(=O)O)N2C(=O)[C@@H](NC(=O)[C@H](N)c3ccccc3)[C@H]2SC1` [Cephalexin monohydrate], the “eye size Z-score” value is 0.26.
The same measure, in the same setting: to `Cc1nccn1CC1CCc2c(c3ccccc3n2C)C1=O` (stereo not drawn) [Ondansetron hydrochloride] belongs 0.77; to `CC(=O)NC[C@H]1CN(c2ccc(N3CCOCC3)c(F)c2)C(=O)O1` [Linezolid], 0.99.
For the compound `Nc1nnc(-c2cccc(Cl)c2Cl)c(N)n1` [Lamotrigine], the “eye size Z-score” value amounted to 0.39.
For `Clc1cc(Cl)c(OCC#CI)cc1Cl` [Haloprogin], the “eye size Z-score” value (female) was determined as 0.06.
Take `Nc1nc(=O)[nH]cc1F` [Flucytosine]: the “eye size Z-score” value was -0.63.
The same measure, in the same setting: to `Cc1cccc(C)c1NC(=O)CN1CCN(CCCC(c2ccc(F)cc2)c2ccc(F)cc2)CC1` [Lidoflazine] belongs -0.8.
The same measure, in the same setting: next, `NC[C@H]1O[C@H](O[C@H]2[C@H](O)[C@@H](O[C@H]3O[C@H](CO)[C@@H](O)[C@H](N)[C@H]3O)[C@H](N)C[C@@H]2N)[C@H](N)[C@@H](O)[C@@H]1O` [Kanamycin B]: -0.67; `C=C1[C@H](CO)[C@@H](O)C[C@@H]1n1cnc2c(=O)[nH]c(N)nc21` [Entecavir]: 0.53.
As to `CC(=O)O[C@]1(C(C)=O)CC[C@H]2[C@@H]3C=C(C)C4=CC(=O)CC[C@]4(C)[C@H]3CC[C@@]21C` [Megestrol acetate], the “eye size Z-score” value is -1.14.
As to `CC/C=C(\C(=O)N[C@@H]1C(=O)N2C(C(=O)OCOC(=O)C(C)(C)C)=C(COC(N)=O)CS[C@H]12)c1csc(N)n1` [Cefcapene pivoxil hydrochloride monohydrate], the “eye size Z-score” value worked out at 0.8.
Consider `Cc1c(F)c(N2CCNC(C)C2)cc2c1c(=O)c(C(=O)O)cn2C1CC1` (stereo not drawn) [Grepafloxacin], for which the “eye size Z-score” value is -0.18.
In the case of `C/C(O)=C(\C#N)C(=O)Nc1ccc(C(F)(F)F)cc1` [Teriflunomide], the “eye size Z-score” value is 0.12.

For the origin of these results see the supplement of paper PMC11542785.
